Chains of the proteins cited; added tags and fusions are not shown. Lines headed by an entry give the natural chain unless they say otherwise; changes in a name come on top.
UniProt Q39204: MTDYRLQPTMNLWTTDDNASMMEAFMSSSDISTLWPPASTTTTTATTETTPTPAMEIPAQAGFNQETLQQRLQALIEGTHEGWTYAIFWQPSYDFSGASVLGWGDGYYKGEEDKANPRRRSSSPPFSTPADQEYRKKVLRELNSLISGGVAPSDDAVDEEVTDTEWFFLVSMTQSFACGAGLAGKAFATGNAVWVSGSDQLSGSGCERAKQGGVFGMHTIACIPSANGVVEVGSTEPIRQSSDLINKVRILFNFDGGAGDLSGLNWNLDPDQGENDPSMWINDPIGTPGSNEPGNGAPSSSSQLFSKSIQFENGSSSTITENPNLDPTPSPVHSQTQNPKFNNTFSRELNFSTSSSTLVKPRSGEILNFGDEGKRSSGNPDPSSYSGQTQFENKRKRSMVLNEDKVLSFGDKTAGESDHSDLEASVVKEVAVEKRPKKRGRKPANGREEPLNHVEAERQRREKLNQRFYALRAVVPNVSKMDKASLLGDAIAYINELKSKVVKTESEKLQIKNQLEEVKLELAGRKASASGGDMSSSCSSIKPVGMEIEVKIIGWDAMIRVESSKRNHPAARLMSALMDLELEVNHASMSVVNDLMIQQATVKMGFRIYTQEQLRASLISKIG
UniProt Q0WKV8: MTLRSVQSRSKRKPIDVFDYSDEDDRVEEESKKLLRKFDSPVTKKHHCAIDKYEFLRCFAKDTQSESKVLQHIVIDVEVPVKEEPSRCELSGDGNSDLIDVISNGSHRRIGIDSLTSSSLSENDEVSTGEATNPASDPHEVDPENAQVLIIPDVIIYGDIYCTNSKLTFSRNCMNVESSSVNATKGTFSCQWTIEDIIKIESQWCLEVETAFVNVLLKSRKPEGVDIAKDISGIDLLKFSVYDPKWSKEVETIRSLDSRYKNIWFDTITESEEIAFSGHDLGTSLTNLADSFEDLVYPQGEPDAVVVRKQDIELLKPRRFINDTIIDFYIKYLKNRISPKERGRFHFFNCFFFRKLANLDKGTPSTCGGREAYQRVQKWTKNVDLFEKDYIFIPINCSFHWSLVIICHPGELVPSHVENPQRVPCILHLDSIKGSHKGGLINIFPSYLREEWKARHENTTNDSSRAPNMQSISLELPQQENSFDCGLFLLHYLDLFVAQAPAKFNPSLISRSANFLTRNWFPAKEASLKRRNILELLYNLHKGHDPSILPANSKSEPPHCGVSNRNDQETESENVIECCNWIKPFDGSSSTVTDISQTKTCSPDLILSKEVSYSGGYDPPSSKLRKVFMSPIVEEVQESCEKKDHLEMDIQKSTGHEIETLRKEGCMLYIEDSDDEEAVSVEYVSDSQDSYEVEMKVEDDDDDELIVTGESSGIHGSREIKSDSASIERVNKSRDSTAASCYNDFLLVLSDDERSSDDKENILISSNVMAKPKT
UniProt Q8L7S0: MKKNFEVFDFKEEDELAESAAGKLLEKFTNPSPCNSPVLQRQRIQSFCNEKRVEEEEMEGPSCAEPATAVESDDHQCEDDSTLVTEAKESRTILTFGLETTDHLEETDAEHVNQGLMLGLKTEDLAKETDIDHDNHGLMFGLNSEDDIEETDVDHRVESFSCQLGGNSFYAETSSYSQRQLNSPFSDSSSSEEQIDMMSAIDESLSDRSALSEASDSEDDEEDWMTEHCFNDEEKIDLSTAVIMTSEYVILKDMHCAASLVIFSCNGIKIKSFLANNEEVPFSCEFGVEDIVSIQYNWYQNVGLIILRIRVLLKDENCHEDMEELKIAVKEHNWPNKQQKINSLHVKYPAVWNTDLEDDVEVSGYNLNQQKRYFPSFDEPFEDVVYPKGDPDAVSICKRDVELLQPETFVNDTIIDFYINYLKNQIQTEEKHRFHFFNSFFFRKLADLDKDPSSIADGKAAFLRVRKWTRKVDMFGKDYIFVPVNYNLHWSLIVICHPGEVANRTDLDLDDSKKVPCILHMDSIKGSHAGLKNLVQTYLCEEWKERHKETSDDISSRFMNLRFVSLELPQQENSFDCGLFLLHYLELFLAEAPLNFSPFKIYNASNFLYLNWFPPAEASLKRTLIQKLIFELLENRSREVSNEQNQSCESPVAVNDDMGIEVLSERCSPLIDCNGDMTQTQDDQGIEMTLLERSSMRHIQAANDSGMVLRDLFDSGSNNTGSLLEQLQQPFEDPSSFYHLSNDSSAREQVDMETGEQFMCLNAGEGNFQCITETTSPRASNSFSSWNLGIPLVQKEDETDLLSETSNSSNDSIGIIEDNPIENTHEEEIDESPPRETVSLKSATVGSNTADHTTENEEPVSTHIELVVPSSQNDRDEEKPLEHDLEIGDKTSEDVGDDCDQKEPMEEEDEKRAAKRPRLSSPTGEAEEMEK

In PMC9338799:

Experiments:
[1] = target: MYC2, yeast two-hybrid fusion (Arabidopsis thaliana) (UniProt Q39204); assay: two-hybrid; yeast AH109; SPF1/SPF2 in pDEST22 (GAL4 activation domain), MYC2 in pDEST32 (GAL4 DNA-binding domain); growth on medium lacking Trp, Leu, His with 3-AT (2 mM); beta-galactosidase assay with CPRG
[2] = target: MYC2 fused to the C-terminal domain of YFP (BiFC construct) (Arabidopsis thaliana) (UniProt Q39204); assay: split reporter; BiFC with YFP halves (pYFN43, pYFC43) in epidermal cells of N. benthamiana leaves co-infiltrated with A. tumefaciens GV3101; confocal imaging

Substance | binding [1] | binding [2]
SPF2, yeast two-hybrid fusion (from UniProt Q0WKV8) (enzyme) | binds | –
SPF2 fused to the N-terminal domain of YFP (BiFC construct) (from UniProt Q0WKV8) (enzyme) | – | binds
SPF1 fused to the N-terminal domain of YFP (BiFC construct) (from UniProt Q8L7S0) (enzyme) | – | binds
SPF1, yeast two-hybrid fusion (from UniProt Q8L7S0) (enzyme) | binds | –

These are yes or no findings as the source states them, for the method shown. Binding can be weak; no strength is given. For some of these results: Binding seen in cells or lysates may run through a third protein.
